Assay results from US4434290A, “Pyrido (4,3-B) carbazoles substituted in the 1 position by a polyamine chain” (priority 1978, dated 1984).

System: leukemia L1210
Test: Leukemia L1210 in vivo, measurement of survival time (Table XII)
Set-up: species or system B6 D2 Fl (C 57 Bl/6×DBA/2) Fl mice; MST: unit not given here
Conditions: for Death interval (mice) / ILS % / MST: 10^5 cells, i.p.
Procedure: The following pharmacological trials relate to the effects of the compounds of the invention on leukemia L1210 in vivo.
G. Proc. Nat. Acad. Sci. 1972, 69, 1042-1047 and Schepartz S., Screening 1971, Cancer Chemother. Part 3; Vol. 2, p. 3].
The properties were determined by the curative action inoculated experimental leukemia L1210. This leukemia was maintained on B6 D2 Fl (C 57 Bl/6×DBA/2) Fl mice in the proportion of 6 or 10 mice per experimental batch. The compounds to be tested were injected by the intraperitoneal route one or several days after inoculation of the cells (1 injection only). […] The death interval was determined, the first figure of the Table indicating the date of the first mouse death and the second the date of the last mouse death. The mean survival time was also measured (MST). A characteristic value is the percentage of increased life span (ILS %). This value (Cancer. Res. 1971, 31, 1883-1887) is the ratio: [formula] where S^t =survival of treated animals and
S^c =survival of control animals.

In the case of `COc1ccc2[nH]c3c(C)c4ccncc4c(C)c3c2c1` [Compound 9-MeO, 9-methoxy-ellipticine, reference compound], the “Death interval (mice)” value (17.5 mg/kg, day +1) is reported as 10-13, the ILS % (17.5 mg/kg, day +1) is reported as 6.6% and the MST (17.5 mg/kg, day +1) is reported as 11.2. For the same molecule, the “Death interval (mice)” value (20 mg/kg, day +2) was 15-21, the ILS % (20 mg/kg, day +2) was 51.7% and the MST (20 mg/kg, day +2) was 17.6. For the same molecule, the “Death interval (mice)” value (20 mg/kg, day +3) was 18-26, the ILS % (20 mg/kg, day +3) was 80% and the MST (20 mg/kg, day +3) was 20.9. For the same molecule, the “Death interval (mice)” value (35 mg/kg, day +1) was 11-13, the ILS % (35 mg/kg, day +1) was 7.6% and the MST (35 mg/kg, day +1) was 11.3. The “Death interval (mice)” value (87.5 mg/kg, day +1) was 13-15, the ILS % (87.5 mg/kg, day +1) was 26.6% and the MST (87.5 mg/kg, day +1) was 13.3. For the same molecule, the “increase in the life span (ILS)” value (text: dose closest to the toxic dose, same conditions) was 26%.
